# In the supplement of paper PMC5770031:
# Values joined by “and” are separate entries in the source; they are usually repeats but may differ in a detail not shown here. Identical values can stand only once. The list shows a part of the results. This data set is noisy: repeats of one test often differ as much as different tests do.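 ATM8/balancer (normal ATM) heterozygous flies were crossed on treated food; parents laid eggs 5–6 days, offspring developed ~12 days, so parents and larvae ingested compound. Readout: fraction of emerged adults homozygous for ATM8 versus 2% DMSO controls. Compounds were neutral at 10–20% homozygotes, harmful below 10%, helpful above 20%.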
# Test system: Drosophila melanogaster ATM8 (temperature-sensitive ATM allele)
# Test: fraction of eclosed F1 progeny that are homozygous ATM8 (rescue of developmental lethality); higher = more rescue of ATM8 developmental lethality; extreme values may be limits of the assay
# Conditions: compound concentration applied to food 0.2 mM; 21 °C
row,Compound,fraction of eclosed F1 progeny that are homozygous ATM8
1,CO/N=C(\C(=O)N[C@@H]1C(=O)N2C(C(=O)O)=C(COC(N)=O)CS[C@H]12)c1ccco1,0.15
2,O=C(NCC(O)CO)c1c(I)c(C(=O)NCC(O)CO)c(I)c(N(CCO)C(=O)CO)c1I (configuration not stated),0.0492
3,FC(F)(Cl)C(F)(F)Cl,0.444
4,CC1Cc2ccccc2N1NC(=O)c1ccc(Cl)c(S(N)(=O)=O)c1 (configuration not stated),0.1
5,CN(C)C(=O)Oc1cc(OC(=O)N(C)C)cc(C(O)CNC(C)(C)C)c1 (configuration not stated),0.119
6,NCCc1ccc(O)cc1,0.342
7,CCC(C(=O)O)c1ccccc1 (configuration not stated),0.159
8,CC(=O)OC1C[C@]2(C)CC[C@H]1C2(C)C (some centres not stated),0.204
9,O=c1cc[nH]c(=S)[nH]1,0.182
10,CC[C@@H](c1cccc(O)c1)[C@@H](C)CN(C)C,0.129
11,CCn1cc(C(=O)O)c(=O)c2cc3c(cc21)OCO3,0.114
12,CC1(C)CC[C@]2(C(=O)O)CC[C@]3(C)C(=CC[C@@H]4[C@@]5(C)CC[C@H](O)[C@@](C)(CO)[C@@H]5CC[C@]43C)[C@@H]2C1,0.143
13,CNC(C)C1CCC(N)C(OC2C(N)CC(N)C(OC3OCC(C)(O)C(NC)C3O)C2O)O1 (configuration not stated),0.0244
14,C[C@]12CC[C@H](O)C[C@@H]1CC[C@@H]1[C@@H]2CC[C@]2(C)C(=O)CC[C@@H]12,0.039
15,O=c1cc(-c2cccc(O)c2)oc2cc(O)ccc12,0.35
16,CC(C)/C(O)=C1/C(=O)O[C@@H](c2ccoc2)[C@]2(C)C(O)[C@@H](O)[C@@]34OC5(C)OC67CC(C)(C(O)[C@]6(O)[C@@H](O)[C@]3(O5)C12)[C@H](CC(=O)O)[C@]74C (some centres not stated),0.11
17,CC[C@H]1OC(=O)[C@H](C)[C@@H](O[C@H]2C[C@@](C)(OC)[C@@H](O)[C@H](C)O2)[C@H](C)[C@@H](O[C@@H]2O[C@H](C)C[C@H](N(C)C)[C@H]2O)[C@](C)(O)C[C@@H](C)[C@@H]2N[C@@H](COCCOC)O[C@H]([C@H]2C)[C@]1(C)O,0.318
18,O=C1CC2(CCCC2)CC(=O)N1CCCCN1CCN(c2ncccn2)CC1,0.167
19,CCn1nc(C(=O)O)c(=O)c2cc3c(cc21)OCO3,0.107
20,O=C(O)C(S)C(S)C(=O)O (configuration not stated),0.0714
21,Cc1cc(/C=C/c2ccc3cc(N(C)C)ccc3[n+]2C)c(C)n1-c1ccccc1,0.2
22,O=c1c(-c2ccc(O)cc2)coc2c([C@@H]3O[C@H](CO)[C@@H](O)[C@H](O)[C@H]3O)c(O)ccc12,0.0341
23,C[N+]1([O-])[C@@H]2CC[C@H]1C[C@@H](OC(=O)C(CO)c1ccccc1)C2 (some centres not stated),0.125
24,CC(C)(Oc1ccc(C(=O)c2ccc(Cl)cc2)cc1)C(=O)O,0.2
25,CCCCNc1ccc(C(=O)OCCOCCOCCOCCOCCOCCOCCOCCOCCOC)cc1,0.156
26,CC(C)=CCC/C(C)=C/CC/C(C)=C/CC/C(C)=C/CC/C(C)=C/CC/C(C)=C/CC/C(C)=C/CC/C(C)=C/CC/C(C)=C/CO,0.213

row,Compound,fraction of eclosed F1 progeny that are homozygous ATM8
1,O=S1(=O)OC(c2ccc(O)cc2)(c2ccc(O)cc2)c2ccccc21,0.156
2,O=C(O[C@@H]1Cc2c(O)cc(O)cc2O[C@@H]1c1cc(O)c(=O)c2c(O)c(O)cc([C@H]3Oc4cc(O)cc(O)c4C[C@H]3O)c2c1)c1cc(O)c(O)c(O)c1,0.286
3,COC(=O)CC[C@@H](C)[C@H]1CC[C@H]2[C@@H]3CC[C@@H]4C[C@H](O)CC[C@]4(C)[C@H]3C[C@H](O)[C@]12C,0.0811
4,CC(=O)OCC(=O)[C@@]1(O)CC[C@H]2[C@@H]3CC[C@@H]4C[C@H](O)CC[C@]4(C)[C@H]3C(=O)C[C@@]21C,0.257
5,[N-]=[N+]=CC(=O)OC[C@H](N)C(=O)O,0.245
6,Oc1ccc(OCc2ccccc2)cc1,0.0933
7,CC1(C)C(=O)C=C[C@@]2(C)C1CC(=O)[C@@]1(C)C3=CC(=O)O[C@@H](c4ccoc4)[C@]3(C)CCC12 (some centres not stated),0.103
8,CC(C)C1=CC2=CC[C@@H]3[C@](C)(CCC[C@@]3(C)C(=O)O)[C@H]2CC1,0.0449
9,N=C1NC(=O)N2CC12 (configuration not stated),0.0577
10,C[C@H]1C[C@H]2[C@@H]3CCC4=CC(=O)C=C[C@]4(C)[C@@]3(F)[C@@H](O)C[C@]2(C)[C@@]1(O)C(=O)CO,0.0488
11,CN(C)CCOc1ccc(/C(=C(/CCCl)c2ccccc2)c2ccccc2)cc1,0.228
12,CCN1CCN(C(=O)N[C@@H](C(=O)N[C@@H]2C(=O)N3C(C(=O)O)=C(CSc4nnnn4C)CS[C@H]23)c2ccc(O)cc2)C(=O)C1=O,0.0938
13,Cc1ccc(Cl)c(Nc2ccccc2C(=O)O)c1Cl,0.167
14,O=C(NCCO[N+](=O)[O-])c1cccnc1,0.0952
15,CC1=Nc2ccc(Cl)cc2S(=O)(=O)N1,0.0909
16,C1CCN2C[C@@H]3C[C@@H](CN4CCCC[C@@H]34)[C@H]2C1,0.111
17,CCCCCCCC/C=C/CCCCCCCCOP(=O)([O-])OCC[N+](C)(C)C,0.0638
18,CC(=O)OCC(OC(C)=O)C(OC(C)=O)C(OC(C)=O)C(OC(C)=O)C(COC(C)=O)OC(C)=O (configuration not stated),0.364
19,Cc1nnc(NS(=O)(=O)c2ccc(N)cc2)s1,0.147
20,O=C1C2CC3CC1CC(O)(C3)C2,0.093
21,COc1cc(NS(C)(=O)=O)ccc1Nc1c2ccccc2nc2ccccc12,0.0702
22,C[C@@H]1C[C@H]2[C@@H]3CCC4=CC(=O)C=C[C@]4(C)[C@@]3(F)[C@@H](O)C[C@]2(C)[C@@]1(O)C(=O)CO,0
23,O=C(O)CCCc1ccccc1,0.0656 and 0.146
24,Cc1cnc(NC(=O)C2=C(O)c3ccccc3S(=O)(=O)N2C)s1,0.143
25,COc1ccc2c3c([nH]c2c1)C(C)=NCC3,0.0667
26,CC1(C)O[C@@H]2C[C@H]3[C@@H]4CCC5=CC(=O)C=C[C@]5(C)[C@@]4(F)[C@@H](O)C[C@]3(C)[C@]2(C(=O)CO)O1,0.111
